From publication PMC10347550 (Journal of the American Chemical Society, 2023)

How the values were obtained:
peptide made by a vendor = conditions: whole synthesis, LC-MS
[1] = Fmoc solid-phase peptide synthesis; conditions: whole synthesis
[2] = Singlet oxygen generation quantum yield, 1275 nm emission; type: physicochemical; conditions: direct detection of 1275 nm emission
[3] = Photosubstitution quantum yields by UV-vis under green light; type: physicochemical; conditions: 515 nm LED, 25 °C

Substance: Ac-MRADH-NH2
- purity (crude or final not stated) (peptide made by a vendor): 95% purity

Substance: Ac-MRGDH-NH2
- crude LC-MS purity [1]: >90%

Substance: [Ru(Ph2phen)2(κ^S,κ^N-(Ac-MRGDH-NH2))]Cl2 (sidechain bridge or staple) [Δ-[1]Cl2] [cyclic ruthenium-peptide conjugate, Ac-MRGDH-NH2 coordinated via Met S and His N]
- ΦΔ, singlet oxygen generation quantum yield [2]: 0.059

Substance: [Ru(Ph2phen)2(κ^S,κ^N-(Ac-MRGDH-NH2))]Cl2 (sidechain bridge or staple) [Λ-[1]Cl2] [cyclic ruthenium-peptide conjugate, Ac-MRGDH-NH2 coordinated via Met S and His N]
- ΦΔ, singlet oxygen generation quantum yield [2]: 0.046
- ΦPS1, first photosubstitution quantum yield ([3]; in H2O): 0.13
- ΦPS2, second photosubstitution quantum yield ([3]; in H2O): 0.0007
- ΦPS1, first photosubstitution quantum yield ([3]; in H2O/CH3CN 1:1 mixture): 0.25
- ΦPS2, second photosubstitution quantum yield ([3]; in H2O/CH3CN 1:1 mixture): 0.0024
